According to the supplement of paper PMC10849652:
The list shows a part of the results. Residues, ends and D or L forms follow the SMILES beside them. *: point of attachment. Cbz = O=C(OCc1ccccc1)*

Protein sequences, listed by entry. Tags and fused reporters are not part of them. Lines headed by an entry give the natural chain unless they say otherwise; changes in a name come on top.
UniProt O95831, whole entry, looked up: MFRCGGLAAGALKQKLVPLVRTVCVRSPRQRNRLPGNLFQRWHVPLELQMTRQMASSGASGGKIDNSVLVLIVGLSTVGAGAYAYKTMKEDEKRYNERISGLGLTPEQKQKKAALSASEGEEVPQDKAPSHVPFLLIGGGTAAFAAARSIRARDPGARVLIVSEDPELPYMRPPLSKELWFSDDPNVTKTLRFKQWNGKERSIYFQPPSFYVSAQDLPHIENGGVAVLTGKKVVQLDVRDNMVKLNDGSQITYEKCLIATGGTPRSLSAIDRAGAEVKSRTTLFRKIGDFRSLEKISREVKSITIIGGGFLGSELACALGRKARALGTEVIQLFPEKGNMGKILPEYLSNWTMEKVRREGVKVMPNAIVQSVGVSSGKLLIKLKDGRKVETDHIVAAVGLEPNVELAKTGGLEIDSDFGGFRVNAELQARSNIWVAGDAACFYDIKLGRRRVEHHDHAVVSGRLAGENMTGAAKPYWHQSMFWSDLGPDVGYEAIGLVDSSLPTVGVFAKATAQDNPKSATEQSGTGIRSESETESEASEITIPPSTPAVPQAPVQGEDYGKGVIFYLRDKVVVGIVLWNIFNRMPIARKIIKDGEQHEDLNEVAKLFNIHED
UniProt P55263: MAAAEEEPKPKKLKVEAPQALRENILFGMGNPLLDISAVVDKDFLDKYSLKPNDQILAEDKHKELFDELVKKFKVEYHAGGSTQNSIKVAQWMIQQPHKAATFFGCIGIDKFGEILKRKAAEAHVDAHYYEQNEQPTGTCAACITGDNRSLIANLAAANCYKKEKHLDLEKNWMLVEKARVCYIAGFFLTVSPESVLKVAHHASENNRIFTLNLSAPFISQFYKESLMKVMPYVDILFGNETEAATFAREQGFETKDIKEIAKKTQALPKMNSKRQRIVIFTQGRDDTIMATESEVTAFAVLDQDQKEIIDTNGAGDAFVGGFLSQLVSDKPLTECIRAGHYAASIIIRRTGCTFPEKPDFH
UniProt P31751: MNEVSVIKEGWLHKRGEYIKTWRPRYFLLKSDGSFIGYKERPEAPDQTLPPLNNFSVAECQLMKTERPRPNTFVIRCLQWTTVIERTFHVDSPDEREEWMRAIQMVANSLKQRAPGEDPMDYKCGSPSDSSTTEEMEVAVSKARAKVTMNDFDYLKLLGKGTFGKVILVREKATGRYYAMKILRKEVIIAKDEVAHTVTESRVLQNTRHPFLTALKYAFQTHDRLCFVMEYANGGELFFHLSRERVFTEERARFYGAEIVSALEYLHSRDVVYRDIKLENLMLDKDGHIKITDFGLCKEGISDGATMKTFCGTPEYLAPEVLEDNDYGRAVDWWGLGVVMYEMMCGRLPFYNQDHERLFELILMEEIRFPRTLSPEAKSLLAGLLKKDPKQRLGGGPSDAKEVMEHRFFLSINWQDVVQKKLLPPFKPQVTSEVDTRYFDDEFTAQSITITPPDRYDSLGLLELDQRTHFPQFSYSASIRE
UniProt Q9Y673: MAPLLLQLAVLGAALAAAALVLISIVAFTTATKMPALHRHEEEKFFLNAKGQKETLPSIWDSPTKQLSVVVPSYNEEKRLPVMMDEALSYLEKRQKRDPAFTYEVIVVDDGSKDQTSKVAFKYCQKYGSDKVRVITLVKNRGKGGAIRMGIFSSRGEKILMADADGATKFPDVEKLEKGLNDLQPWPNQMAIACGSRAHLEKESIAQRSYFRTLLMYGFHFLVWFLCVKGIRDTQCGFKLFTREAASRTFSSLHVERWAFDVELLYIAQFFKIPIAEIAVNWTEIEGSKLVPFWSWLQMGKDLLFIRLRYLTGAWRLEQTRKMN
UniProt O00468: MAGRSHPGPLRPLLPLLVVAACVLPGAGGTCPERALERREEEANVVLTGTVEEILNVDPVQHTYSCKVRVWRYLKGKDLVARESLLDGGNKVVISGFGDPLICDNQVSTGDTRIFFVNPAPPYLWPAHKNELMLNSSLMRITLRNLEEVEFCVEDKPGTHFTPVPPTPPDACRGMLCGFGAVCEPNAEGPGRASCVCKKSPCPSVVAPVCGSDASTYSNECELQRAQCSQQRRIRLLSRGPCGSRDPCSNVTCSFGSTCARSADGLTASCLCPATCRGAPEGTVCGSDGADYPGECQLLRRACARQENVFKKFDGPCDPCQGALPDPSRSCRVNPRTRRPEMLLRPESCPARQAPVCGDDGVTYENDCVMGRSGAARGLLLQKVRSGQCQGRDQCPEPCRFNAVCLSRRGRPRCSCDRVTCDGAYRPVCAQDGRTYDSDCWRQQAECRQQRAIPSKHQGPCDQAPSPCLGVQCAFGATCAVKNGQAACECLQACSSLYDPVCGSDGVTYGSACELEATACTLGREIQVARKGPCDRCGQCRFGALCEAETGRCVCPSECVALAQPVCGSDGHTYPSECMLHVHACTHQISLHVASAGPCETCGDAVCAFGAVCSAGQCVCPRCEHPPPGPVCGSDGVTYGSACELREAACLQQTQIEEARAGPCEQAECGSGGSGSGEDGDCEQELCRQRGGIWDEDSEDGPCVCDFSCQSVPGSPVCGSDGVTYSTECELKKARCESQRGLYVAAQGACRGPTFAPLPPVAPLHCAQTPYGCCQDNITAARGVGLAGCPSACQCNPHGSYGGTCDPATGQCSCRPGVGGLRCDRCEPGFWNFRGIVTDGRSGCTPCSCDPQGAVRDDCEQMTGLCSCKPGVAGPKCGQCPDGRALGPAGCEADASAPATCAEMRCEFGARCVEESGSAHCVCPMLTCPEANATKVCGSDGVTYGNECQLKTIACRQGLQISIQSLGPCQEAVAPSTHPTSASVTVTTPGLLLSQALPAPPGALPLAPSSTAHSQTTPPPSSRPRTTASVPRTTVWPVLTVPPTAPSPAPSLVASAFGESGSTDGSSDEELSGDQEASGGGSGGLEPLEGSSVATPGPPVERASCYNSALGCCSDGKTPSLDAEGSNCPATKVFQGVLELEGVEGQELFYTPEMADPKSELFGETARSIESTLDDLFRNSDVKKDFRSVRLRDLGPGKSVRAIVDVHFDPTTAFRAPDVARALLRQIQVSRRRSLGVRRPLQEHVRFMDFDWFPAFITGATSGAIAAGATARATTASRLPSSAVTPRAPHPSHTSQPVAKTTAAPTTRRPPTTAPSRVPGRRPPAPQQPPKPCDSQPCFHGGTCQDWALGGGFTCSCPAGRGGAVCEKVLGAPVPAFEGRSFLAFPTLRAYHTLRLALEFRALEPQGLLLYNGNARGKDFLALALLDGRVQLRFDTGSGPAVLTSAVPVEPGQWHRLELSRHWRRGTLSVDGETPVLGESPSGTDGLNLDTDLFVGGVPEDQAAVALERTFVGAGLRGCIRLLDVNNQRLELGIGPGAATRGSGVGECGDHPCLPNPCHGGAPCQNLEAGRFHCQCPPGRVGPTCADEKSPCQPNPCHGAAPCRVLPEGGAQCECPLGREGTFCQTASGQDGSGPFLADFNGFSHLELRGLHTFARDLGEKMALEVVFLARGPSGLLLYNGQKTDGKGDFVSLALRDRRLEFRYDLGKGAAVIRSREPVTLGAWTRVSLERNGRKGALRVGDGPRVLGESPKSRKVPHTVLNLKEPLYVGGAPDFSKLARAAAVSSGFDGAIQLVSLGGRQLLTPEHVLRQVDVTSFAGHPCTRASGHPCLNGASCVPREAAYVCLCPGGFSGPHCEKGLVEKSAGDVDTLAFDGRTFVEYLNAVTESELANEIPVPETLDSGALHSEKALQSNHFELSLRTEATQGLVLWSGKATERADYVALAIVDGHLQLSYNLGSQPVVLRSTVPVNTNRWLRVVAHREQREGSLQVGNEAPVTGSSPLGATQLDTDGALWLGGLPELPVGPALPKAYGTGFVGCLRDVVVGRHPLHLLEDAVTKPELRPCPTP
UniProt Q9NUQ2: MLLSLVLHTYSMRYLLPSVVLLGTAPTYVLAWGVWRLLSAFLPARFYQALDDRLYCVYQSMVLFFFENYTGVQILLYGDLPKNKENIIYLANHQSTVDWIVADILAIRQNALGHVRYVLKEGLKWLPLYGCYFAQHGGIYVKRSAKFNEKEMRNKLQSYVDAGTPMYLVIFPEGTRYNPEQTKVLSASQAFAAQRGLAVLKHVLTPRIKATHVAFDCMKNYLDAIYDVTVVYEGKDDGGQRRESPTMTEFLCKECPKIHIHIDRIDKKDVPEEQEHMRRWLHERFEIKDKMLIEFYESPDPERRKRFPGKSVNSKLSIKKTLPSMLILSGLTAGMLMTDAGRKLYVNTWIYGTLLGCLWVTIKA
UniProt Q92685: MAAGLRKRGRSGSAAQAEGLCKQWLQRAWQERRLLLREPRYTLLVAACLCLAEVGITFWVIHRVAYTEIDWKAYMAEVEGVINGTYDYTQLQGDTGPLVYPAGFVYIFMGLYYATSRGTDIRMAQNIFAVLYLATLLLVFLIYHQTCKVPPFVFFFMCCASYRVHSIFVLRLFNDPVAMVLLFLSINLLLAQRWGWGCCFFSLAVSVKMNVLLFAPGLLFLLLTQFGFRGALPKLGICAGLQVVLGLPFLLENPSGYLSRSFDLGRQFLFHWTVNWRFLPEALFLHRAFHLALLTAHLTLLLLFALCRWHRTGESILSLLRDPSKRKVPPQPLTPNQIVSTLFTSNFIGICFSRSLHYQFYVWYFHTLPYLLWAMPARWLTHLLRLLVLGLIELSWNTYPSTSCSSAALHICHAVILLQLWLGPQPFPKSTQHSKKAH
UniProt P55196: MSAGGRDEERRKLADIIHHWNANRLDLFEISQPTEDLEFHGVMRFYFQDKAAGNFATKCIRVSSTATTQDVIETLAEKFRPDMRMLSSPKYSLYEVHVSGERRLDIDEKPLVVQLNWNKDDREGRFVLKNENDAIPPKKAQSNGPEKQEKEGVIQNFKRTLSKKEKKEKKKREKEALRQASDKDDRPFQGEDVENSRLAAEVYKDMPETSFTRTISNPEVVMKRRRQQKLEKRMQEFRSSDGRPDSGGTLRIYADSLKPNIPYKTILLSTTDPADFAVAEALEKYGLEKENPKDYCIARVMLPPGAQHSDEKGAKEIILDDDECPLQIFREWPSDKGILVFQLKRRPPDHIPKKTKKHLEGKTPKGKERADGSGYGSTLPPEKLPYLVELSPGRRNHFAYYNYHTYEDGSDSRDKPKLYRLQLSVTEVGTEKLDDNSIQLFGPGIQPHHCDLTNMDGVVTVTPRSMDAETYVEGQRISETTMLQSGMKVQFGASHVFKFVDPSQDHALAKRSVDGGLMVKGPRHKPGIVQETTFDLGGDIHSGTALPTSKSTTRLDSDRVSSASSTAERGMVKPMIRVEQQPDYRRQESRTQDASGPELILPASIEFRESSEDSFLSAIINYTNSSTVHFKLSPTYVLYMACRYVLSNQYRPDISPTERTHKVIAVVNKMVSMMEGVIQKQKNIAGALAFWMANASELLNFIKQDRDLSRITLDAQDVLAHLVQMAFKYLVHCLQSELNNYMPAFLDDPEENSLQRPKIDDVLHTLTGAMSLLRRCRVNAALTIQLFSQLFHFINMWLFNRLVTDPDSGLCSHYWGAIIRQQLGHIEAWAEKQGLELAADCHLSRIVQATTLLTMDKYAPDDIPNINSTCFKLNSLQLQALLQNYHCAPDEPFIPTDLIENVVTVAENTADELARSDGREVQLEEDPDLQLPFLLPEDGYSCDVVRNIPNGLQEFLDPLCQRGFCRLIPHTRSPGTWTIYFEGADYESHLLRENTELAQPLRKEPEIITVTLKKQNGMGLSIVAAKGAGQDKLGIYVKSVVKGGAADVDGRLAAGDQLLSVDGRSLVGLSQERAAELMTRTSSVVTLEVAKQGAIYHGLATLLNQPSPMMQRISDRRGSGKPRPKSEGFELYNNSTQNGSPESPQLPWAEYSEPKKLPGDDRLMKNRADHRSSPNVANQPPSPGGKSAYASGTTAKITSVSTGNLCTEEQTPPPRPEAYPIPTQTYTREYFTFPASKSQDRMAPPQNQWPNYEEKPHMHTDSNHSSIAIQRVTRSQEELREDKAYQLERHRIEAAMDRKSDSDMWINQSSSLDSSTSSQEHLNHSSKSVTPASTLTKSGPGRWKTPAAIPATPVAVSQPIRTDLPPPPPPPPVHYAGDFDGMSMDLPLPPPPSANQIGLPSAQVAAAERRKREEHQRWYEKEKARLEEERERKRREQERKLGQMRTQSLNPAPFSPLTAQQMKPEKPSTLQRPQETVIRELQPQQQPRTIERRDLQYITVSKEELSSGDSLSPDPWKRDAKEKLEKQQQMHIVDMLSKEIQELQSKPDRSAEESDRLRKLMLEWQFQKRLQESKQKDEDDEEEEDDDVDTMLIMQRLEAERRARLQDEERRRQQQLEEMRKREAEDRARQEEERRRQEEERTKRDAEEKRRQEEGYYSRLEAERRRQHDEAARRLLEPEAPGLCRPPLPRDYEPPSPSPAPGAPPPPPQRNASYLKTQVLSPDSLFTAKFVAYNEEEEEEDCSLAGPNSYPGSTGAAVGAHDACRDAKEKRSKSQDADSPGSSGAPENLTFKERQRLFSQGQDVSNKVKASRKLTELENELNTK

Columns and labels:
Assay in all cases: log2 fold change, soluble protein after heating vs DMSO (PISA); higher = thermal stabilisation; K562 cells, 10 uM, 30 min; active = over 0.2 and 3.5 SD of the protein, either way, in both replicates (recomputed)
[1] = compound: C1COCCN1CCN2C3=CC=CC=C3N=C2NC(=O)C4=CC(=CC=C4)[N+](=O)[O-] [IRAK-1-4 Inhibitor I]
In short: (§1)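 K562 cells at 2×10^6 cells/mL were exposed to 10 μM compound for 30 min, then aliquots were heated for 3 min across 48°C-58°C, pooled, and extracted in PBS containing 0.5% NP-40 at 4°C. The supernatant after 21,000xg for 90 min was taken as soluble protein and measured by TMTpro 16plex LC-MS/MS with channel sums equalised. Thermal stability is reported relative to control samples, with values from duplicates. Fold changes are given on a log2 scale.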

[2] = compound: C=CC(=O)N1CCC[C@@H](n2nc(-c3ccc(Oc4ccccc4)cc3)c3c(N)ncnc32)C1 [ibrutinib]
In short: as §1

[3] = compound: CC(=O)c1cnc2ccc(-c3cc(Cl)c(O)c(Cl)c3)nc2c1N[C@H]1CC[C@H](CN(C)C)CC1
In short: as §1

[4] = compound: CC(C)(C)Cn1c(N)nc2ccc(-c3[nH]c(C(C)(C)C)nc3-c3ccc(F)cc3)nc21 [ralimetinib]
In short: as §1

[5] = compound: CC(C)(O)CC(=O)NCCn1ccc2ncnc(Nc3ccc(Oc4cccc(C(F)(F)F)c4)c(Cl)c3)c21
In short: as §1

[6] = compound: CC(C)C1=C2N=C(C=C(N2N=C1)NCC3=CC=CC=C3)NCCCCCCN
In short: as §1

[7] = compound: CC(C)C[C@@H](C=O)NC(=O)[C@H](CC(C)C)NC(=O)[C@H](CC(C)C)NC(=O)OCc1ccccc1
In short: as §1

[8] = compound: CC(C)N(C[C@H]1O[C@@H](n2cnc3c(N)ncnc32)[C@H](O)[C@@H]1O)[C@H]1C[C@@H](CCc2nc3cc(C(C)(C)C)ccc3[nH]2)C1 [pinometostat]
In short: as §1

[9] = compound: CC1=C(C(CC(=O)N1)C2=CC=C(C=C2)C(F)(F)F)C(=O)NC3=C(C=C4C(=C3)C=NN4)F
In short: as §1

[10] = compound: CC1=C(C2=C(C=C1)C(=O)C3=CC=CC=C3N2CCCN)C
In short: as §1

[11] = compound: CC1=C(C=C(C=C1)NC(=O)C2=CC(=CC=C2)C(C)(C)C#N)NC3=CC4=C(C=C3)N=CN(C4=O)C
In short: as §1

[12] = compound: CC1=C(C=C(C=C1)NC(=O)C2=CC(=CC=C2)N(C)C)NC(=O)C3=CC=C(C=C3)O
In short: as §1

[13] = compound: CC1=CC=C(C=C1)SC2=C3C=C(SC3=CN=C2)C(=O)N
In short: as §1

[14] = compound: CC1=NC(=CC=C1)C2=C(N=C(N2)C(C)(C)C)C3=CC4=NC=CN=C4C=C3
In short: as §1

[15] = compound: CCCCN(Cc1ccc(C(=O)NO)cc1)C(=O)Nc1ccccc1 [Nexturastat A]
In short: as §1

[16] = compound: CCCS(=O)(=O)Nc1ccc(F)c(C(=O)c2c[nH]c3ncc(-c4ccc(Cl)cc4)cc23)c1F [vemurafenib]
In short: as §1

[17] = compound: CCCS(=O)(=O)Nc1ccc(F)c(C(=O)c2c[nH]c3ncc(Cl)cc23)c1F
In short: as §1

[18] = compound: CCCc1cc(C)[nH]c(=O)c1CNC(=O)c1cc(-c2ccnc(N3CCN(C)CC3)c2)cc2c1cnn2C(C)C
In short: as §1

[19] = compound: CCN(CC)Cc1ccc2cc(COC(=O)Nc3ccc(C(=O)NO)cc3)ccc2c1 [givinostat]
In short: as §1

[20] = compound: CCN(CCCOc1ccc2c(Nc3cc(CC(=O)Nc4cccc(F)c4)[nH]n3)ncnc2c1)CCOP(=O)(O)O [barasertib]
In short: as §1

Measured: log2 fold change

AIFM1 (UniProt O95831)
inactive: [1] 0.024 | [2] 0.006 | [3] -0.025 | [4] -0.018 | [5] -0.008 | [6] 0.028 | [7] -0.023 | [8] -0.04 | [9] -0.004 | [10] 0.016 | [11] -0.013 | [12] -0.009 | [13] 0 | [14] 0.005 | [15] -0.056 | [16] 0 | [17] -0.008 | [18] 0.02 | [19] -0.022 | [20] -0.008

ADK (UniProt P55263)
inactive: [1] 0.08 | [2] 0.034 | [3] 0.184 | [4] 0.246 | [5] -0.002 | [6] 0.074 | [7] -0.058 | [8] 0.016 | [10] -0.001 | [11] 0.03 | [12] -0.027 | [13] 0 | [14] -0.011 | [15] -0.04 | [16] -0.013 | [17] -0.046 | [18] 0.106 | [19] -0.076 | [20] -0.026

ADRM1 (UniProt Q16186)
inactive: [1] -0.096 | [2] -0.111 | [3] 0.033 | [4] 0.065 | [5] -0.077 | [6] -0.005 | [7] -0.064 | [8] 0.015 | [10] 0.04 | [11] 0.067 | [12] 0.009 | [13] -0.013 | [14] 0.024 | [15] 0.104 | [16] -0.022 | [17] -0.028 | [18] 0.01 | [19] 0.034 | [20] -0.021

AIP (UniProt O00170)
inactive: [1] 0 | [2] -0.047 | [3] 0.007 | [4] 0.006 | [5] -0.094 | [6] -0.074 | [7] -0.018 | [8] -0.027 | [10] -0.026 | [11] 0.014 | [12] -0.074 | [13] 0.032 | [14] 0.07 | [15] -0.07 | [16] 0.071 | [17] 0.088 | [18] 0.065 | [19] 0.043 | [20] 0.031

AHCYL1 (UniProt O43865)
inactive: [1] 0.035 | [2] 0.062 | [4] 0.008 | [5] -0.016 | [6] 0.014 | [7] 0.001 | [8] -0.048 | [10] -0.004 | [11] -0.103 | [12] 0.003 | [13] -0.061 | [14] 0.011 | [15] 0.014 | [16] -0.029 | [17] -0.015 | [18] -0.039 | [19] -0.026 | [20] -0.036
active: [3] 0.337

AKT2 (UniProt P31751)
inactive: [1] -0.013 | [2] -0.033 | [3] -0.039 | [4] -0.015 | [5] -0.027 | [6] -0.179 | [7] 0 | [8] -0.016 | [10] -0.011 | [11] 0.018 | [12] 0.033 | [13] 0.006 | [14] 0.019 | [15] 0.069 | [16] -0.007 | [17] 0.015 | [18] -0.017 | [19] 0.069 | [20] 0.079

AKAP8L (UniProt Q9ULX6)
inactive: [1] -0.076 | [2] -0.001 | [3] -0.128 | [4] 0.091 | [5] -0.091 | [6] -0.299 | [7] 0.106 | [8] -0.018 | [10] -0.34 | [11] -0.124 | [12] -0.007 | [13] -0.092 | [14] 0.005 | [15] 0.054 | [16] 0.069 | [17] 0.067 | [18] 0.02 | [19] 0.004 | [20] 0.047

ALG5 (UniProt Q9Y673)
inactive: [1] 0.026 | [2] -0.043 | [4] 0.009 | [5] -0.009 | [6] -0.004 | [7] 0 | [8] -0.002 | [10] 0.07 | [11] 0.039 | [12] 0.019 | [13] -0.001 | [14] 0.049 | [15] -0.055 | [16] 0.035 | [17] 0.059 | [18] 0.025 | [19] 0.01 | [20] 0.02
active: [3] -0.281

AGAP3 isoform 4 (UniProt Q96P47)
inactive: [1] -0.024 | [2] -0.018 | [3] -0.223 | [4] 0.25 | [5] 0.009 | [6] -0.182 | [7] -0.044 | [8] 0.245 | [10] -0.043 | [11] 0.037 | [12] 0.071 | [13] -0.039 | [14] -0.081 | [15] 0.252 | [17] -0.022 | [18] 0.089 | [19] 0.113 | [20] 0.199

AKR1C3 (UniProt P42330)
inactive: [1] 0.072 | [2] -0.108 | [3] 0.015 | [4] 0.085 | [5] 0.265 | [6] 0.025 | [7] -0.149 | [8] -0.069 | [10] -0.049 | [11] -0.034 | [12] -0.207 | [13] 0.268 | [14] -0.007 | [15] 0.022 | [16] -0.032 | [17] 0.066 | [18] 0.289 | [19] -0.003 | [20] 0.014

AGRN (UniProt O00468)
inactive: [1] -0.205 | [2] 0.09 | [3] -0.025 | [4] 0.125 | [5] -0.022 | [6] 0.156 | [7] -0.066 | [8] -0.005 | [10] 0.014 | [11] -0.089 | [12] -0.294 | [13] -0.031 | [14] 0.014 | [15] -0.051 | [16] -0.025 | [17] -0.072 | [18] 0.024 | [19] -0.011 | [20] 0.011

ALDH6A1 (UniProt Q02252)
inactive: [1] 0.004 | [2] -0.023 | [3] -0.041 | [4] 0.019 | [5] -0.155 | [6] -0.068 | [7] -0.002 | [8] -0.01 | [10] 0.018 | [11] -0.02 | [12] 0.032 | [13] -0.039 | [14] 0.044 | [15] -0.014 | [16] 0.025 | [17] 0.011 | [18] 0.029 | [19] -0.017 | [20] -0.038

AGPAT5 (UniProt Q9NUQ2)
inactive: [1] 0.047 | [2] 0.003 | [3] 0.062 | [4] -0.037 | [5] 0.03 | [6] -0.163 | [7] 0.002 | [8] 0.007 | [10] 0.021 | [11] -0.02 | [12] -0.009 | [13] 0.012 | [14] -0.068 | [15] -0.061 | [16] 0.008 | [17] 0.095 | [18] -0.088 | [19] -0.05 | [20] 0.015

ALG14 (UniProt Q96F25)
inactive: [1] 0.007 | [2] 0.104 | [3] -0.157 | [4] -0.12 | [5] -0.115 | [6] -0.098 | [7] 0.093 | [8] 0.038 | [10] 0.195 | [12] -0.13 | [13] 0.045 | [14] 0.068 | [15] -0.479 | [16] -0.053 | [17] 0.052 | [18] -0.131 | [19] 0.03 | [20] 0.03

ALG3 (UniProt Q92685)
active: [14] 0.376
inactive: [1] -0.081 | [2] -0.022 | [3] -0.08 | [4] -0.08 | [5] -0.034 | [6] -0.267 | [7] -0.038 | [8] -0.075 | [10] -0.045 | [11] 0.108 | [12] 0.002 | [13] 0.113 | [15] 0.008 | [16] -0.076 | [17] 0.123 | [18] -0.079 | [19] -0.09 | [20] 0

Two neighbouring entries already listed, for reference:
ALDH6A1 (UniProt Q02252)
inactive: [1] 0.004 | [2] -0.023 | [3] -0.041 | [4] 0.019 | [5] -0.155 | [6] -0.068 | [7] -0.002 | [8] -0.01 | [10] 0.018 | [11] -0.02 | [12] 0.032 | [13] -0.039 | [14] 0.044 | [15] -0.014 | [16] 0.025 | [17] 0.011 | [18] 0.029 | [19] -0.017 | [20] -0.038

AGPAT5 (UniProt Q9NUQ2)
inactive: [1] 0.047 | [2] 0.003 | [3] 0.062 | [4] -0.037 | [5] 0.03 | [6] -0.163 | [7] 0.002 | [8] 0.007 | [10] 0.021 | [11] -0.02 | [12] -0.009 | [13] 0.012 | [14] -0.068 | [15] -0.061 | [16] 0.008 | [17] 0.095 | [18] -0.088 | [19] -0.05 | [20] 0.015

Next part

ALDH1B1 (UniProt P30837)
inactive: [1] 0.051 | [2] 0.031 | [3] -0.009 | [4] -0.004 | [5] -0.072 | [6] 0.132 | [7] -0.01 | [8] -0.022 | [10] 0.221 | [11] 0.054 | [12] 0.008 | [13] 0.128 | [14] 0.017 | [15] -0.104 | [16] 0.011 | [17] 0.032 | [18] -0.016 | [19] 0.032 | [20] -0.001

AFDN isoform 5 (UniProt P55196)
inactive: [1] -0.018 | [2] -0.012 | [3] -0.19 | [4] -0.002 | [5] -0.125 | [6] -0.082 | [7] 0.01 | [8] 0.004 | [10] 0.049 | [11] -0.031 | [12] -0.049 | [13] 0 | [14] 0.087 | [15] -0.033 | [16] 0.021 | [17] 0.023 | [18] 0.007 | [19] 0.062 | [20] 0.015
